Laboratory results taken from paper PMC4183699, “A Relay Network of Extracellular Heme-Binding Proteins Drives C. albicans Iron Acquisition from Hemoglobin” (PLoS Pathogens, 2014).
No constants are given. Whether binding was seen depends on the method and setting. Where a sequence is shown, tags or fusion partners need not be part of it.

The chains behind the UniProt entries cited, without tags or fusion partners. Where a name states a change or a piece, a line headed by the entry shows the natural chain unless it says otherwise.
UniProt P01966: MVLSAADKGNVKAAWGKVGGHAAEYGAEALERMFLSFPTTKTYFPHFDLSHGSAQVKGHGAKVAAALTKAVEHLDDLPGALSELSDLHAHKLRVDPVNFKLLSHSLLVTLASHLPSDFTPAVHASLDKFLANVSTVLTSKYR

Biological target: bovine hemoglobin (bovine) (UniProt P01966)
Experiment: pull-down; bovine hemoglobin covalently bound to CnBr-activated Sepharose-4B beads; 50 µl of 50 µM apo-protein mixed with 10 µl Hb-beads, 30 minutes at room temperature, supernatant separated from the beads; both purified

B1: Pga7(18–195)-Myc-6×His (domain or fragment)
chain: NFGTYPKVPKTASINGFADPIYDLLPDCAKECVKFSTSNTPCPYWDTGCFCVMPQWAGLVGQCVAQKCKGEDVASARFLATSLCSVVGANTWMMPASISSMLSTAAGDAKEVTTIEGKTAKSWVTAPGSAAGSVVSETGSASETGSSESAQSTTTGSSSTGSSSTDSSSSSSSSPSSS
notes: Pga7, C. albicans CFEM protein, residues 18-195: from the predicted signal peptide cleavage site to the predicted GPI anchor addition site; PGA7 nucleotides +52 to +585 cloned EcoRI-XbaI into pPICZalphaA (KB2259); Used as apo-protein (heme removed) or as holo-protein (loaded with heme, not covalent); both are this one construct; The vector pPICZalphaA may leave a few residues at the N-terminus …
- binding: no binding (tested: 50 µM)

B2: Rbt5(23–219)-Myc-6×His (domain or fragment, UniProt Q59UT4 23-219)
chain: EGDNPYTIFPSVAKTASINGFADRIYDQLPECAKECVKQSTSSTPCPYWDTGCLCVMPQFAGAVGNCVAKNCKGKEVGSVESLATSICSSAGVWEPYWMIPSSVSDALAKAADAAAETTAESTTAESTAAETTKAEETSAKETTAAETSKAAESSAPAETSKAEETSKAAETTKAEESSVAQSSSSAADVASVSVEA
- binding: no binding (tested: 50 µM)
